Results are given in words; binding and its absence hold for the method and conditions named. In cells and extracts the contact can be indirect. Here binding means that the protein was enriched with, or labelled near, the bait; the list need not be complete.
B1: Cdk2ap1 (protein, UniProt O35207 1-114)
chain: MSYKPNLTAHMPAAALNAGSVHSPSTSMATSSQYRQLLSDYGPPSLGYTQGTGNSQVPQSKYAELLAIIEELGKEIRPTYAGSKSAMERLKRGIIHARSLVRECLAETERNARS
B2: Zfp296 (protein, UniProt E9Q6W4 1-445)
chain: MSRRKAGRVPRRVDPDTDTDIEMPDLVMDVKPDLDLRSLAQGPWIARDMPISDVKRQLQTASRPLGAPSTCAPRMPLSSKSSDRQPWTDKHPDLLTCGRCGKIFPLGAIIAFMDHKKQGCQLLQVSDPISESKELKALSCLQCGRQYTSPWKLLCHAQWDHGLCIYQTQHLDTPEAPLLGLAEVAAAMSAVAVVAPVESKPPPVSSAARRSPTCDVCKKTLSSFSNLKVHMRSHTGERPYSCDQCSYACAQSSKLNRHKKTHRQLAPGSPSTSASSRGVSPAAPPEPAAYAAAPASTLPSQTVEKAGAAATAGVQEPGAPGSGAQGGPGFVGWGAPAKVERTDPVKIEKTAPRKSHGPGGKCEFCGKSFTNSSNLTVHRRSHTGERPYTCDQCPYACAQSSKLNRHRRTHGLGTGKTVKCPHCLVPFGLQATLDKHLRQKHPEMA
B3: Pwwp2a (protein, UniProt Q69Z61 1-730)
chain: MAAVAAEAAATAASPGEGGAGEAEPELEPIPGSEAGTPLPVTATEAAVPDGEADGRQSAPQADEQPLPPPPPPPPPGELADSSEAEEAKPPEPAAVPVSPPEQPPAAPEQPEDAPRPPPAPALVPPAGGDSAVSHLIPGSEVRVTLDHIIEDALVVSFRLGEKLFSGVLMDLSKRFGPHGIPVTVFPKREYKDKPDAMQLQSTTFQEGIEVKQEVNGAVPDDLSPVPPPERLWASKPPPLFHEGAPYPPPLFIRDTYNQSIPQPPPRKIKRPKRKMYREEPTSIMNAIKLRPRQVLCDKCKNSVVAEKKEIRKGSSDSSRYEDKKRRNDSVATVNKKLKTDHKVDGKNQNESQRRNTVVRVSSIAHSRGRVVKVSAQANTSKAQLNTKKVLQSKNMDHAKAREVLKIAKEKAQKKQSETSTSKTAHAKVHFTRRYQSPSSGSLPPRVRLKPQRYRNEENDSSLKTGLEKIRSGKLAPKPQSRCTSTRSAGEAPSEKPSPSEGPEESAGEVQDTSRVRVPGEQEELRMLGKKGSKSSISVYLTLNQETSDSSSASVCSIDSMDDLKSSNSECSSSESFVFPPGCMHAPSASSTSTSFSSKEENSLRNSLKMKIFSKNVSKCITPDGRTICVGDIVWAKIYGFPWWPARILTITVSRKDNGLLARQEARISWFASPTTSSLALSQLSPFLENFQLRFNKKRKGLYRRAITEAAKAAKQLTPEVRALLTQFET
B4: Zfp219 (protein, UniProt Q6IQX8 1-726)
chain: MEGSRPRILVGHLEPSPPAFDGELDLQRYSNGPGVSGTPGPGSPGMGAVGWSETRAGERRFPCPVCGKRFRFNSILALHLRAHPGAQAFQCPHCGHRAAQRALLRSHLRTHQPERPRSPAARLLLELEERALLREARLGRARSSGGMQSSPAAEGLARPQVPSSSAFRCPFCKGKFRTSAERERHLHILHRPWKCSLCSFGSSQEEELLHHSLTAHGASERPLAATSTPEPPPPPQQEPRSALEPEPEPEPRPEPDREANPAPTPAPPEEPPAPPEFRCQVCGQSFTQSWFLKGHMRKHKASFDHACPVCGRCFKEPWFLKNHMKVHTSKLGPLRAPGPGSAPARAPQPPDLSLLAYEPLGPALLLAPAPAPAERREPPSLLGYLSVRAGEVRPNGEGADPGGGRSYGGFRPLPSALPNRARRHRTEEPEEEEEVVEAEEESWARGRSLGSLTSLHPNPGEGSGQPAPAAGTQARSTATQEENGLLVGGTRSEAGRGATGKDCPFCGKSFRSAHHLKVHLRVHTGERPYKCPHCDYAGTQSGSLKYHLQRHHREQRSSAGPGPPPEPPPPSQRGSLQPQSGAKPTQASATWVEGTASTRPPSSSTGPGSRRKPASPGRTLRNGRGGEAEPLDLSLRAGPGGEAGAGGALHRCLFCPFATGAPELMALHLQVHHSRRARGRRQPRADTSPTYVRAPSGETPPSPPLEEEGSPGLSRSGEAGLGGQER

By UniProt entry, the sequences of proteins in these tests, tags left out. Where a name states a change or a piece, a line headed by the entry shows the natural chain unless it says otherwise.
UniProt Q9R190: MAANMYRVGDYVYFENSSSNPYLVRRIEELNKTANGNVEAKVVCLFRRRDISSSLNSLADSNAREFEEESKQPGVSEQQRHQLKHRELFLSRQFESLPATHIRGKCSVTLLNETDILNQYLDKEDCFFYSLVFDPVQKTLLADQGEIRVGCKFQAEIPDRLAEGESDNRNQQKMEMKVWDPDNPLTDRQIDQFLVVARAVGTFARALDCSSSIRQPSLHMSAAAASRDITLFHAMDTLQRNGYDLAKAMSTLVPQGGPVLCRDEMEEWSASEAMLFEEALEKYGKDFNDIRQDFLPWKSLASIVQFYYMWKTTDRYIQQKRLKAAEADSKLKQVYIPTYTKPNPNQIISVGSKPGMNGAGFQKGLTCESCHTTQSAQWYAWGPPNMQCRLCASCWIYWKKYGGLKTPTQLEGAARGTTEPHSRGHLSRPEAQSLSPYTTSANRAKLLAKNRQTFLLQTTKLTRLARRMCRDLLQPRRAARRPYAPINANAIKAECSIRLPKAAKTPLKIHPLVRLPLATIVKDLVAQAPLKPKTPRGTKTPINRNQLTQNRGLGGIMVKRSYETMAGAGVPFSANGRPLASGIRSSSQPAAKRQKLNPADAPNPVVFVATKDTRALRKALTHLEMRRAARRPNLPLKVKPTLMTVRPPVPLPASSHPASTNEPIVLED
UniProt Q8K4B0: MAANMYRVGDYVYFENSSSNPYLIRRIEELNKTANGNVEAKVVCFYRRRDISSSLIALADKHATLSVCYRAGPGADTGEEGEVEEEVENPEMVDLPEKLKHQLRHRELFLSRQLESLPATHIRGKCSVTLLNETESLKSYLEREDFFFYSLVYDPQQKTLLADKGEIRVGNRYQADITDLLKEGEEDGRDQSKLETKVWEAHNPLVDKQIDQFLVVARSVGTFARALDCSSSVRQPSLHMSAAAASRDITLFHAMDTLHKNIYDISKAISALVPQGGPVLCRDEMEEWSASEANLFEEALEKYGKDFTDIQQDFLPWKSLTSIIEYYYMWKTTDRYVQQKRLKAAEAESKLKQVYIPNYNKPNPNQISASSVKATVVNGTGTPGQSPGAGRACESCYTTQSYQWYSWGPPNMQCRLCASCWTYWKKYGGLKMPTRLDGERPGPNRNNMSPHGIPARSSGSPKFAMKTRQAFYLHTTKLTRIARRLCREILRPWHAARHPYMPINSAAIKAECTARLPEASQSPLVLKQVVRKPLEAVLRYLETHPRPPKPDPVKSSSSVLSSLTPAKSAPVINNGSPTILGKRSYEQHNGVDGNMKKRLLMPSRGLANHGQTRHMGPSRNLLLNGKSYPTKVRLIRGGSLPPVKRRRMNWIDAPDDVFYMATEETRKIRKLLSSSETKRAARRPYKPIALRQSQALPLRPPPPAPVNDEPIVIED
UniProt P70288: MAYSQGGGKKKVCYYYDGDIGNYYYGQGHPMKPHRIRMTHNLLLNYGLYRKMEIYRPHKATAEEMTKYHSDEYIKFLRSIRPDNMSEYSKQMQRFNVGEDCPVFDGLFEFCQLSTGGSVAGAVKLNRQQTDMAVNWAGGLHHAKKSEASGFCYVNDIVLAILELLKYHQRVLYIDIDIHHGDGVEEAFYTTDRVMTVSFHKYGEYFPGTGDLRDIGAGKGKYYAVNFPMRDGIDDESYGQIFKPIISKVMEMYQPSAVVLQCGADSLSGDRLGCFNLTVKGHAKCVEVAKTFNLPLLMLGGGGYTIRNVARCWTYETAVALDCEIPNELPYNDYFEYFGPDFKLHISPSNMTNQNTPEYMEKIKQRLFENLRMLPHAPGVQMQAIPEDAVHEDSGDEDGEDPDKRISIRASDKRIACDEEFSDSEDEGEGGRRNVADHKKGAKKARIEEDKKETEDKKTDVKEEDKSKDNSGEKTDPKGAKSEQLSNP
UniProt Q6PDQ2: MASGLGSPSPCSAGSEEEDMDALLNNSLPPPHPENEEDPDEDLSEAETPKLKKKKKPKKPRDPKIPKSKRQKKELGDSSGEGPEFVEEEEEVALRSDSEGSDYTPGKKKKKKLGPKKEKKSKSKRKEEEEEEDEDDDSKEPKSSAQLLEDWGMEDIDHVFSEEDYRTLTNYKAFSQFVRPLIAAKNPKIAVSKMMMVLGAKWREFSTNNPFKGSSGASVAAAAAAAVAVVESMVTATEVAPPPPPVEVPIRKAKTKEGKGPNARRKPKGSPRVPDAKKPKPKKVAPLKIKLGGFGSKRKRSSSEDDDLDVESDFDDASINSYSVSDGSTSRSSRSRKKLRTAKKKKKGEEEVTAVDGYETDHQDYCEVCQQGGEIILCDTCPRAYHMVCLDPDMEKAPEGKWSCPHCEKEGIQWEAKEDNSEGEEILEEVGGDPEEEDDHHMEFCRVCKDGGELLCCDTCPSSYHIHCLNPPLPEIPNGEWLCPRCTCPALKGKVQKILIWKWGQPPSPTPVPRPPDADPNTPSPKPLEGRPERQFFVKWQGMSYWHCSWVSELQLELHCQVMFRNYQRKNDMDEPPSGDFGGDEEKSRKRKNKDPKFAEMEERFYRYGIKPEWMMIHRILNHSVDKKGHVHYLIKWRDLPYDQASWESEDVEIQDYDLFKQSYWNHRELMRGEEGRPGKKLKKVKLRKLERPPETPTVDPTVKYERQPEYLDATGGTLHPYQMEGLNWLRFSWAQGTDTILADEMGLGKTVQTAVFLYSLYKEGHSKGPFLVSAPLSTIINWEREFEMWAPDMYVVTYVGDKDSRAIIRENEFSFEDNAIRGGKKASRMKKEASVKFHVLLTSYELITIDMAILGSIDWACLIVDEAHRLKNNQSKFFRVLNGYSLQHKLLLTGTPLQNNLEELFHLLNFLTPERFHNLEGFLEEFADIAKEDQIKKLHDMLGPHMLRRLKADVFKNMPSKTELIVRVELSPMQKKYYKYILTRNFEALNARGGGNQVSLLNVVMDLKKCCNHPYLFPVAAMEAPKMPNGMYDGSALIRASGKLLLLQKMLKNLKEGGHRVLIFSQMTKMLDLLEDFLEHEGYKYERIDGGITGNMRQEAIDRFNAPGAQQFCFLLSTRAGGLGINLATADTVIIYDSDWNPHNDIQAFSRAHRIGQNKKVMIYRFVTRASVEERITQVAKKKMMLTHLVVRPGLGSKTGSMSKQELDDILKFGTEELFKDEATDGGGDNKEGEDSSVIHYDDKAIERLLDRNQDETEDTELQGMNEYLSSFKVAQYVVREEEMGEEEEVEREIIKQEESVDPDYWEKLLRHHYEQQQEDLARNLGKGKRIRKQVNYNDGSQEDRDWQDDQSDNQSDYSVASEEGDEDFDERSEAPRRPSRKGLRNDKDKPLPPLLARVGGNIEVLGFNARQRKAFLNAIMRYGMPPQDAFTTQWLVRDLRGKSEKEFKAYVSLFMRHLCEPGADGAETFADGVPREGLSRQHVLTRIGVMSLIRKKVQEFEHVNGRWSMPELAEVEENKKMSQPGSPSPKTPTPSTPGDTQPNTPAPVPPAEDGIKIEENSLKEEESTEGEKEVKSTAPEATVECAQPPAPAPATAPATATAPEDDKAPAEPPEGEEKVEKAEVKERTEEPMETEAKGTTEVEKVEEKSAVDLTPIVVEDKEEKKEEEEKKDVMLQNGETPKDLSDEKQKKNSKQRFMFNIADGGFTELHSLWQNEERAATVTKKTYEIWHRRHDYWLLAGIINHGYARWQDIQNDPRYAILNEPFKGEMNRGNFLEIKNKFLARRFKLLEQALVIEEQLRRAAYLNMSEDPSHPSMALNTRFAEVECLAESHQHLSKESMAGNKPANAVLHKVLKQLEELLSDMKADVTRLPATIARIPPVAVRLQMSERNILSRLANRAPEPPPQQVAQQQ
UniProt B7ZCR6: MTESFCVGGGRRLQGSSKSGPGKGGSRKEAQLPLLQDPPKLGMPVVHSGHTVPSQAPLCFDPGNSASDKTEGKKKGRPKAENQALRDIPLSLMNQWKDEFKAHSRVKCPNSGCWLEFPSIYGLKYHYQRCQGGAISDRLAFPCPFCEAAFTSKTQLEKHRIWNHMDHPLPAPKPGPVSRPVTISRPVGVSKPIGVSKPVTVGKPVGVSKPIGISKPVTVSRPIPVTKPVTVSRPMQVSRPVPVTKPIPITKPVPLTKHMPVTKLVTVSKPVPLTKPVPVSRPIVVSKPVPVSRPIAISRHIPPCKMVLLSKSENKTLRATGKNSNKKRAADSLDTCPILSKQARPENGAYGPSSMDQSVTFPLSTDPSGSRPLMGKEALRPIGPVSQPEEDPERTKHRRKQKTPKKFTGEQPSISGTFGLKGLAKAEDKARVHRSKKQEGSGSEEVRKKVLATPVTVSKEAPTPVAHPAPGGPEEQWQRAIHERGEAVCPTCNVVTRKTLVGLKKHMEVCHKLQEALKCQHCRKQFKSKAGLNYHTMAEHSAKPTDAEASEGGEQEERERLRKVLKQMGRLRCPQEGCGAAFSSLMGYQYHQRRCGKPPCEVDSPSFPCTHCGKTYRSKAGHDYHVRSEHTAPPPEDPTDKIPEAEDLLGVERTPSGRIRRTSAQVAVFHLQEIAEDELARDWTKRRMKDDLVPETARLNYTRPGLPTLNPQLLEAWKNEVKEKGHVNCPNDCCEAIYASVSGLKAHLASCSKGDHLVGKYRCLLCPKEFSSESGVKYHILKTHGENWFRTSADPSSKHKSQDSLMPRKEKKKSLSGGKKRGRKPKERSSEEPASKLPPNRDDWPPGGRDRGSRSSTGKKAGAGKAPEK
UniProt Q8VHR5: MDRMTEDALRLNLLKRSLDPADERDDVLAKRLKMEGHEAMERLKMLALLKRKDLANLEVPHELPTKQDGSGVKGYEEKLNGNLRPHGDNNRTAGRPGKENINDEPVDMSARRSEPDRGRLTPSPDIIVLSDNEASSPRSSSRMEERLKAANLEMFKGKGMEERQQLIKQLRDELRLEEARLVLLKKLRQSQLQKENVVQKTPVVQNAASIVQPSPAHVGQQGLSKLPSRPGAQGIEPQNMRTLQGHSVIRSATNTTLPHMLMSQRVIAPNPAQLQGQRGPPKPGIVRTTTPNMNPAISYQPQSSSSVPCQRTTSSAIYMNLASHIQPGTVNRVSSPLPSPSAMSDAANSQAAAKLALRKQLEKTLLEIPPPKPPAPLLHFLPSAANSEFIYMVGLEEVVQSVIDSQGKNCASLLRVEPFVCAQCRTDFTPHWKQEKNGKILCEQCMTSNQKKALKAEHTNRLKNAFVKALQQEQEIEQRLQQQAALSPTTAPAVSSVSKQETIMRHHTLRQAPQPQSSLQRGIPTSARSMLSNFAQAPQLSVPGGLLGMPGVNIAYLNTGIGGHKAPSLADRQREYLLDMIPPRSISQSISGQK
UniProt Q8CHY6: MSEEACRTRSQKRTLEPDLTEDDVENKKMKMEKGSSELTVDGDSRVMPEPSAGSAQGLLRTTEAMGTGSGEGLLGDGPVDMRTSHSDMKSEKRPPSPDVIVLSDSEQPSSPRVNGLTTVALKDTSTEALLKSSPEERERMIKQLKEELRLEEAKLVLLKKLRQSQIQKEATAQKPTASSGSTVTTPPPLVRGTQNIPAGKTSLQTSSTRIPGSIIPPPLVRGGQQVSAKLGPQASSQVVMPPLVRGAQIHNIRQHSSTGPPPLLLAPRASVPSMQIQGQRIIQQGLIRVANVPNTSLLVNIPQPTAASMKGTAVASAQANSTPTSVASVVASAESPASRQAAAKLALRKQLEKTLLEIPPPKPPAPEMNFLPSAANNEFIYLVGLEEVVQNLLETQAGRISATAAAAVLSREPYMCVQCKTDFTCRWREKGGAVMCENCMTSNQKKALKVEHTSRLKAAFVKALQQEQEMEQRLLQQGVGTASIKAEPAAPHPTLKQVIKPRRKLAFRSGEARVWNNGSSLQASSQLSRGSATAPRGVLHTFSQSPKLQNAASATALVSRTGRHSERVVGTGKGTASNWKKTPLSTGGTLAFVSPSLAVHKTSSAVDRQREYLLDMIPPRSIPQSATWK
UniProt Q9Z2E1: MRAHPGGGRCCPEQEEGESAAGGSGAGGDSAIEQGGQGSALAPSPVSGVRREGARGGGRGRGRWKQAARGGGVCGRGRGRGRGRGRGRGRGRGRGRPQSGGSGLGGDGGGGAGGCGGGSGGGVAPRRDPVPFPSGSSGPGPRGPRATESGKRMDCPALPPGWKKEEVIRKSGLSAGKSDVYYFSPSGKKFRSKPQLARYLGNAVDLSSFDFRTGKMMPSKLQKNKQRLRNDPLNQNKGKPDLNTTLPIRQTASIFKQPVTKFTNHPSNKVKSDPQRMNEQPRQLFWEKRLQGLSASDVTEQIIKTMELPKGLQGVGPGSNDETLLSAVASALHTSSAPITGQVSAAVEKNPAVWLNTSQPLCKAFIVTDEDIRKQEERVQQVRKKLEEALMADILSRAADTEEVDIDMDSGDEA

How the values were obtained:
Test in all cases: affinity purification with mass spectrometry; 2 mg ES cell nuclear extract with GFP-Trap or FLAG-sepharose beads, 50 μg/ml ethidium bromide, Buffer C (300 mM NaCl, 20 mM HEPES/KOH pH 7.9, 20% glycerol, 2 mM MgCl2, 0.2 mM EDTA), 0.1% NP-40; on-bead digestion; label-free quantitative LC-MS/MS, triplicate; wild-type cells, repeated in Mbd3-null cells
[1] = molecular target: Mta2-GFP (mouse (endogenous in ES cells)) (UniProt Q9R190)
[2] = molecular target: Mta1-Avi-3xFLAG (mouse (endogenous in ES cells)) (UniProt Q8K4B0)
[3] = molecular target: Mta3-Avi-3xFLAG (mouse (endogenous in ES cells))

| Molecule | binding [1] | binding [2] | binding [3] |
| --- | --- | --- | --- |
| Hdac2 (from UniProt P70288 1-488) | binds | binds |  |
| Mta1 (from UniProt Q8K4B0 1-715) | binds |  |  |
| Chd4 (from UniProt Q6PDQ2 1-1915) | binds | binds |  |
| Hdac1 (from UniProt O09106 1-482) | binds | binds |  |
| Zfp512b (from UniProt B7ZCR6) | binds |  |  |
| Gatad2b (from UniProt Q8VHR5 1-594) | binds | binds |  |
| Gatad2a (from UniProt Q8CHY6 1-629) |  | binds |  |
| Mta2 (from UniProt Q9R190 1-668) |  | binds |  |
| Mbd2 (from UniProt Q9Z2E1 1-414) | binds | binds |  |
| B1 | binds | binds | binds |
| B2 | binds | binds | binds |
| B3 |  | binds |  |
| B4 | binds |  |  |
